Source: publication PMC4559766
No constants are given. Whether binding was seen depends on the method and setting. Some entries that bind do so weakly or less than the wild type.

Chains of the proteins cited; added tags and fusions are not shown. Residues count along the entry.
UniProt P02768, residues 25-609: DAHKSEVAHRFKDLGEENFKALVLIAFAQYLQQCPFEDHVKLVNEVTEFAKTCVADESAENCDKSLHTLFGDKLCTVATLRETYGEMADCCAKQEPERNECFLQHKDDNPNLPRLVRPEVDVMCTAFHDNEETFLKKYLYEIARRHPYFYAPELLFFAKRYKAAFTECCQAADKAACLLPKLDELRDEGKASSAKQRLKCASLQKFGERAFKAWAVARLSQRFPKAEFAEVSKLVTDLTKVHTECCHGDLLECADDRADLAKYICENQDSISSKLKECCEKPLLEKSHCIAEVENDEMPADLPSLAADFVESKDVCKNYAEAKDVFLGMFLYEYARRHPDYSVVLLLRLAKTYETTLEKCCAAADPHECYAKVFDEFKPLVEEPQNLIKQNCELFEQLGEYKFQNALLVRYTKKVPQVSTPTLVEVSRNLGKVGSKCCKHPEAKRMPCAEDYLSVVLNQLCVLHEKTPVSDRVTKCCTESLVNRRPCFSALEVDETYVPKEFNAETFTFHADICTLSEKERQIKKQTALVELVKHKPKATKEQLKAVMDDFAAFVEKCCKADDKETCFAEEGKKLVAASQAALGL
UniProt P07724, residues 25-608: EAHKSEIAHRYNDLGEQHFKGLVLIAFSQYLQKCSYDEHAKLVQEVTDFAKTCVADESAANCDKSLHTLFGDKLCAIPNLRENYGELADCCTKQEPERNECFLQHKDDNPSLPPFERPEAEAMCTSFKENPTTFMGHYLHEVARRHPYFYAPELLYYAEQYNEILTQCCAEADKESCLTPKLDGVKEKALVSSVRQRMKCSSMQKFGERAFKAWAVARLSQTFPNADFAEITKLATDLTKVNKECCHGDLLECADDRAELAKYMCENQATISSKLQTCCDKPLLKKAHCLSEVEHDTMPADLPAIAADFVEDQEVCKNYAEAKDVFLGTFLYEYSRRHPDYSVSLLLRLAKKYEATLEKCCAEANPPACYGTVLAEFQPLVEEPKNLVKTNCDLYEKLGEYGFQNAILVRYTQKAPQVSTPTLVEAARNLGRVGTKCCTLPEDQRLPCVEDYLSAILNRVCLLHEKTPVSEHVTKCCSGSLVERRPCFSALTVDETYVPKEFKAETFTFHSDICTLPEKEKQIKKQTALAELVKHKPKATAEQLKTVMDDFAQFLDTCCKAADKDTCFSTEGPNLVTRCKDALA

Columns and labels:
[1] = biological target: Human serum albumin (human) (UniProt P02768); test: ELISA; HSA or MSA (100 μg/ml in 0.1 M NaHCO3) coated on the plate, blocked with 1% casein; phage clones in 4-fold serial dilution from 10^12 particles, 25 °C, […]; detected by rabbit anti-M13 phage antibody and HRP-conjugated goat anti-rabbit IgG, A405; only the target purified
[2] = biological target: Mouse serum albumin (mouse) (UniProt P07724); test: as above

WQRPSSW [7-mer peptide WQRPSSW shown on phage]
binding [1]: binds
binding [2]: binds
